The results in this text go back to publication PMC9897671.

Amino acid sequences for entries named in this document (tags omitted).
UniProt Q08211: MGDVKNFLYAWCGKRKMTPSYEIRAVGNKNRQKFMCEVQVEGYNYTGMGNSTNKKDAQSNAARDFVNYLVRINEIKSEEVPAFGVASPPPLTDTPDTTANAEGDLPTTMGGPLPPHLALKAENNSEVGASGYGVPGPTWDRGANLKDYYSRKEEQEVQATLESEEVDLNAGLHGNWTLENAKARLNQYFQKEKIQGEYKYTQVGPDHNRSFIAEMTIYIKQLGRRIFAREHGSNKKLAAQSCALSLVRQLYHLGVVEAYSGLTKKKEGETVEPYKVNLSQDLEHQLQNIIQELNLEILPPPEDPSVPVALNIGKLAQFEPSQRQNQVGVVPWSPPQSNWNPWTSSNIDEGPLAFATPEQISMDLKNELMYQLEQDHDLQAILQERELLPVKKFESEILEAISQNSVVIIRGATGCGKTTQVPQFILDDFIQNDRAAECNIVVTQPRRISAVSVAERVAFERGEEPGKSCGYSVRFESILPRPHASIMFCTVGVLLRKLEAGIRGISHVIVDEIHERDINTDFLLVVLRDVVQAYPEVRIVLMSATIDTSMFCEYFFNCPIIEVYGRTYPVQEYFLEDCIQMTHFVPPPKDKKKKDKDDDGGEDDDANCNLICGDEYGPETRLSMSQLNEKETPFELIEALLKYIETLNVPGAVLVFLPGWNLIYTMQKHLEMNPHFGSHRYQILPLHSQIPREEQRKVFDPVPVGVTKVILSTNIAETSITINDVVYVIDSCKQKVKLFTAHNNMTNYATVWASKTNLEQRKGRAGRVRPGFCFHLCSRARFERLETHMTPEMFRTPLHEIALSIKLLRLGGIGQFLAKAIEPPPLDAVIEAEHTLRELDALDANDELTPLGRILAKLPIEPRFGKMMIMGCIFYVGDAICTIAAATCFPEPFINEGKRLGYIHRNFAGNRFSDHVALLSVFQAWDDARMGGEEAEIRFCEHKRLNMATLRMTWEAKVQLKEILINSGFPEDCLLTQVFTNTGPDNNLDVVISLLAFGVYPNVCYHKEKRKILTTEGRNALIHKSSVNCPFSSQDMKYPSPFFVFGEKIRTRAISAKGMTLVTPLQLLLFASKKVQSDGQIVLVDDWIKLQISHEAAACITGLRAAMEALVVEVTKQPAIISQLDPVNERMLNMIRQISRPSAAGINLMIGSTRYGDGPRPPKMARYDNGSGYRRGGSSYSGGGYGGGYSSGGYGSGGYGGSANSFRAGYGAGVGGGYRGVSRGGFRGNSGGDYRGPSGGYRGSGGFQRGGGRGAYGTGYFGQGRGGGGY
UniProt P42224: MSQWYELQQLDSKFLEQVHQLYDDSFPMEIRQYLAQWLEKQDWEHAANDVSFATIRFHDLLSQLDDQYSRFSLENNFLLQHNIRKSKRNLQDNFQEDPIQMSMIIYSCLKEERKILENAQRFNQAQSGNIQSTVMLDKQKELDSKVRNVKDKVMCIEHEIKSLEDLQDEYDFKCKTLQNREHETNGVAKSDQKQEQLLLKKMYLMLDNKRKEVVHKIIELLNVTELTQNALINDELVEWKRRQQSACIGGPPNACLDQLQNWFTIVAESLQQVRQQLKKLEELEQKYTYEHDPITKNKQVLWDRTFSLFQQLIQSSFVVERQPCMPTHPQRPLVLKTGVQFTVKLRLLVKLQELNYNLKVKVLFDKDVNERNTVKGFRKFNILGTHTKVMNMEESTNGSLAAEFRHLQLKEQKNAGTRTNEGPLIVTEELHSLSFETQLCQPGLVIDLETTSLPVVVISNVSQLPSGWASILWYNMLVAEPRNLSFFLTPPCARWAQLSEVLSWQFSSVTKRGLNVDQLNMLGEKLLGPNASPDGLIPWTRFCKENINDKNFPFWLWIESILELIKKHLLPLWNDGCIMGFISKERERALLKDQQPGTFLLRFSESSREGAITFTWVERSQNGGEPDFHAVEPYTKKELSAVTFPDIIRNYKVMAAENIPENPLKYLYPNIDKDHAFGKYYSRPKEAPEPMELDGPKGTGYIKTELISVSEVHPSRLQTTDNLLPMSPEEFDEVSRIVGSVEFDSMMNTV

These are yes or no findings as the source states them, for the method shown. Binding seen in cells or lysates may run through a third protein. Some results given as binding are weak or reduced against the parent protein; the word gives no strength.

The target of the experiment is Flag-tagged DHX9 (UniProt Q08211). Briefly: co-IP.

Take “GFP-tagged STAT1 (from UniProt P42224 1-750)”: the binding entry is on record as “binds”.
